In paper PMC7348141 one finds binding data, which are given here for 1 substance.

Protein sequences, listed by entry. Tags and fused reporters are not part of them.
UniProt P46937: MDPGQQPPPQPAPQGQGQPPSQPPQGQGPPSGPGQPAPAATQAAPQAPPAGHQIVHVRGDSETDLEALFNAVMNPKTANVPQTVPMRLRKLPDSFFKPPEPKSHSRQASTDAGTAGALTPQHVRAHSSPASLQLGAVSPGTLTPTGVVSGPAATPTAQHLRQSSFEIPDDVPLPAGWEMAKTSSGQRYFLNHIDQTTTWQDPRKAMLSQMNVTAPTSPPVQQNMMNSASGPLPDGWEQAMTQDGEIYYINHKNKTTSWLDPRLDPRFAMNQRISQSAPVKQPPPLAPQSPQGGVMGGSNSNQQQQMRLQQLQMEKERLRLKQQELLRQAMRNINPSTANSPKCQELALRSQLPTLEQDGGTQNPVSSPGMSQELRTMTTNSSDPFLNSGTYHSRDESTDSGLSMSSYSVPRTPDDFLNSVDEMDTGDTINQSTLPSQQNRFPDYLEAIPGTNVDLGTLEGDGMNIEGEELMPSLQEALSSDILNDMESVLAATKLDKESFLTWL
UniProt Q15796: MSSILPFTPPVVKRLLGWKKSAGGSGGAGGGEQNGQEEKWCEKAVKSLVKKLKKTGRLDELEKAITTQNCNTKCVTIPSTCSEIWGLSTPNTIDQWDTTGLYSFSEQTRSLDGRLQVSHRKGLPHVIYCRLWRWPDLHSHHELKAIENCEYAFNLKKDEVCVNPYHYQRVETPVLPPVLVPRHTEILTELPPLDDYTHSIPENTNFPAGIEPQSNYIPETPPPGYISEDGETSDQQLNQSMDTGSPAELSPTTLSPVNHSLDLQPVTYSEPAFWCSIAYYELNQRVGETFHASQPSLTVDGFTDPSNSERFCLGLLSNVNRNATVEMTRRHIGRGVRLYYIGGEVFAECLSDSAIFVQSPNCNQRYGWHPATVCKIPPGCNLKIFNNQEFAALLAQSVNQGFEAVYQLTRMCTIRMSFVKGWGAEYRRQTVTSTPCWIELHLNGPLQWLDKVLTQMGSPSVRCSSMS

Results are given in words; binding and its absence hold for the method and conditions named. In cells and extracts the contact can be indirect. Some binding calls cover weakened binding; strength is not graded here.

The target of this experiment is Yes-associated protein (human (endogenous in HASMCs)) (UniProt P46937). The experiment can be described thus: co-IP; whole cell lysates of HASMCs (Cell Lysis Buffer with protease inhibitor) incubated with YAP antibody or control IgG overnight at 4°C, protein A/G agarose; co-precipitated SMAD2 detected by Western blot; cells untreated, treated with thrombin (1 U/mL), or pre-treated with dabigatran before thrombin. On the technique in general: In western blotting, separated proteins are transferred to a membrane and probed.

Take SMAD2 (from UniProt Q15796 1-467): the binding result is given as “binds”.
